In all, about 52,000 sequences went through this assay and about 210 (0.4%) were called active.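 The calls were made as follows: active = gene whose silencing raises cell survival under the drug, median off-target-corrected z-score across its silencing RNAs 2 or more; inactive = the rest.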 This is one part of the list.

This experiment is described as follows: Resistance to Poly (ADP-Ribose) Polymerase inhibitor: Gene Identification via Genome-wide siRNA Screen. To be noted: mouse BRCA2 R2336H ES cells, olaparib, CellTiter-Glo viability; active compounds read high. The procedure, abridged:
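Mouse BRCA2 R2336H ES cells were reverse-transfected with siRNA (20 nM final), treated at 48 h with 500 nM olaparib, and read by CellTiter-Glo after 72 h. Scores: MAD-based z per siRNA, median per gene, seed off-target correction.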
For the sequence “GGAACAGGCACAGAAAAUUTT against 4833417A11Rik”, the z-score was inactive: -1.8.
To GGAGAACACAAAGUUAUACTT against Prpf39 belongs inactive: 0.186; to GGACAACACUGUCAAUCAUTT against Olfr922, inactive: -2.38.
Consider “GGAUAUUUGAUCACUGUACTT against 6430701C03Rik”, for which the z-score is inactive: 1.17.
In the case of “GGACAUGACCAAAAGGCUGTT against 3110006P09Rik” it was active: 2.27; in that of GGGCAGAUUGACUUUUUUGTT against Rragd, inactive: -1.03; in that of GGAAAAACUCUUCUUCACGTT against Nphs1, inactive: 0.0964.
As for GGCAGAGGAGUCCUGUAAATT against Pcaf, the z-score was inactive: 2.55.
In the case of GGUACGACAAGGAUUGGAGTT against Arhgap18, the z-score is inactive: -0.992.
To GGAUUUCUAGUCUCCUCUUTT against Slc25a11 belongs inactive: -0.512; to CGAUUUUACCAACCGCUGCTT against Chtf18, inactive: 0.754.
In the case of GGCAUACCAAAGGUAUGAUTT against Serpine1 it was inactive: -0.435.
Consider GGUCAAAUGAAAGCUCAAGTT against Ppm1d, for which the z-score was inactive: -2.67.
To GGCCUCAAGAAUGUAACAGTT against Psmf1 belongs inactive: -0.851.
In the case of “GCCUAUGUACUGGUCAAGCTT against C630028L02Rik” it was inactive: 2.03.
Regarding GGUCAAUUCUUUGUGAUGATT against Usf1, the z-score is inactive: -0.31.
In the case of CCUAAGGUAGUUUUACCCUTT against Shbg it was inactive: -0.176; in that of CCUUUGGAUCAUGCUACAATT against Csnb, inactive: 0.32.
As to GGAUCUUUGCCAAGAAAUUTT against Fmo2, the z-score was inactive: 1.14.
Consider GCAUCGAUCUUUCACCUGUTT against Htr4, for which the z-score was inactive: 0.512.
In the case of “GGCUCUUAGGACGUGUAUATT against 3110004H13Rik” it was inactive: -1.28.
In the case of GGACAACCAGCUCAUUGUGTT against Kai1 it was inactive: -0.52; in that of GGCCUUUUACAAUGAACAUTT against Itgax, inactive: 0.211.
In the case of GCAAGACCCUUCGAGUGAATT against Nkd2 it was inactive: -0.0988; in that of GCUGAAGUAGGGUUUAUUATT against Gdap10, inactive: 0.524; in that of GGAAAUUCAGAUGCUGAAGTT against Rab6ip2, inactive: 1.15.
In the case of GGUCACCUACUGCUCAAACTT against Dnajc3, the z-score is inactive: 0.151.
To GCUUCUUGAUGCUACUCAATT against Centb1 belongs inactive: -0.851.
To GCCUGUGUGCUGUUGUGUUTT against Krtap5-1 belongs inactive: 0.015; to CCAAAAAGAUUUGGAUCUCTT against Nr2f6, inactive: -0.318.
To UGCGGUUGAAUUCUCCCAUTT against MGC62475 belongs inactive: 0.593.
Turning to GGAUGAUAUGGAUUCACAATT against Clgn, the z-score is inactive: 1.64.
To GUGAACCACACUGUCUGAGTT against Pr1 belongs inactive: -1.89.
In the case of “GCACCUAGUUAAUGCUGCCTT against 5830404H04Rik” it was inactive: 0.213; in that of GCUGUAAUGCUAAUGACAUTT against Gpr22, inactive: 0.389; in that of “GACGCAAGCAGCAUUUUAUTT against C030046I01Rik”, inactive: 1.2.
In the case of GGAUACAGAGUAUUUCAAGTT against Rtkn it was inactive: 0.812.
On to CCAGAAACACUAGUAAAGGTT against Dppa3, for which the z-score is inactive: -1.13.
For the sequence GGACUUAAAACAGAAAGCATT against Ccdc5, the z-score was inactive: -2.3.
In the case of GAGAUGUCCGAAAUGCCAATT against BC017612 it was inactive: 1.7.
To GGAUCUGACAGCUCAUUUUTT against Casp7 belongs inactive: 0.882; to GGCACUAAGACCUGUUUUGTT against Msx2, inactive: 1.33; to GCCAAAGUACUCUUACAAGTT against Tfip11, inactive: -0.826.
In the case of GGCUCUGAGUACCUGUGGATT against Olfr646 it was inactive: -0.199.
With GGUUUUAGAUAUUAACCUGTT against Hnrpc, the z-score is inactive: 1.89.
Regarding CCAAUAAGGUCUCUGCCCATT against Trit1, the z-score is inactive: -1.53.
Consider CGAAUUGUCUUUCUCACUATT against Olfr769, for which the z-score is inactive: -0.00732.
As for GGCUUUGUCUACACUUUCATT against Olfr1308, the z-score was inactive: -0.973.
On to GGAUUUCAGUGUCUAGAAGTT against Frmd4b, for which the z-score was inactive: -0.81.
In the case of “GGAGAUUUUGGAAAAAGCATT against D12Ertd771e” it was inactive: 0.064; in that of CCACUUAUAACUCAUAGUUTT against AI788959, inactive: 0.166.
In the case of GCAUGUACCAAGGUUGAUGTT against Klhl17 it was inactive: -0.0563; in that of GGGUCUUUAUAAACUCAGUTT against Tyr, inactive: 0.199; in that of GGGUGAACUUACAGAAAUATT against Olfr214, inactive: 0.0586.
In the case of GUCGCACCGUAUUCACUGATT against Barx1 it was inactive: 1.49; in that of CCUAAGGAGGAUGCGUAUGTT against Mphosph10, inactive: 0.398; in that of GGGAAUUCACAGUCAGCCUTT against Il27, inactive: -1.52.
With “GGUUCUUGGUGAUGAUGAGTT against 9030416H16Rik”, the z-score was inactive: -3.23.
To GCUUCAGUAUUUAUUUGCUTT against Usp28 belongs inactive: -0.071; to GGACAACGAUAGCUAACCUTT against BC014795, inactive: 0.0457.
For “CCCACUGGUUAUAAAUGAATT against C530044N13Rik”, the z-score is inactive: -0.99.
To GGGCAUGGAACAAGAUGUCTT against Nckipsd belongs inactive: -1.4.
In the case of GGUUAUAAACCAGAAGAGUTT against Mill2 it was inactive: 0.18; in that of UGGGAUCUUCGUUUAAUGATT against Syncrip, inactive: 0.504.
For GGUUACAUAUCAGUUGAAATT against Slc35a3, the z-score was inactive: 0.218.
To “GGGUAGGUAUCAAAAUAAUTT against 6030452D12Rik” belongs inactive: -0.189; to GGAUCUGCUGGAAUCUCAGTT against Zfp261, inactive: 1.68; to GGACAAAUCUUUGUUUAGCTT against Plscr3, inactive: 0.279.
To GGAAUUUCACUAUAAUCGCTT against Hoxb6 belongs inactive: -0.191; to “GGACUCUCAAUGAUGAAUATT against 4933424A10Rik”, inactive: -0.114; to GGGAAGGAAUAUGAUGGGCTT against BC033915, inactive: -0.32.
Take GCAGUGUCCAAAGCACUUUTT against Slc6a9: the z-score was inactive: 0.273.
To GGGAGAAUUUUUGUGCAAGTT against Capza3 belongs inactive: -0.362; to “CGUAAUUGUUCCAUGUAGUTT against 2700049P18Rik”, inactive: 0.619.
As to GGCACAACAUCAUCUGUCUTT against Psmd9, the z-score was inactive: -0.488.
In the case of GGAGAACUAUUCAGAAACUTT against Btbd11 it was inactive: -0.729.
Regarding CCCAUAACAAACUAAGACGTT against Trpm4, the z-score is inactive: 0.803.
As for “GGAGUUCAACAAUGGAUUATT against 1700019M22Rik”, the z-score was inactive: 1.43.
To GGAGCAGAUACAGAAGAUCTT against Pfdn2 belongs inactive: -1.69.
To CCUUCUCAUAAGCUACGGUTT against Pms1 belongs inactive: 0.652; to GGAAGACCAGUAGGACUAGTT against Gast, inactive: -0.095; to GCAUCUCUUACUAAGAUUATT against Anxa4, inactive: -0.206.
In the case of “CCUGGUAAAAGACUGGGCUTT against 1700010H15Rik” it was inactive: 0.505; in that of GCCCACUGUAUGAAUUGUATT against Plk1, inactive: -1.95.
Turning to “GGCUUUGCAGGAAUACAUGTT against C530028I08Rik”, the z-score was inactive: -0.684.
In the case of GGGCUCUUCAUUCAGACUCTT against Zfp513 it was inactive: 0.174; in that of CCUGGCAGAGCAUUAUCUATT against AV028368, inactive: -0.26.
In the case of CGAAUCAGUAGAUUUGACATT against Ppp1r9a it was inactive: 0.768; in that of GGUAUUUUGACAGAGUCGATT against Add1, inactive: 0.616.
To GGAGAUCAAAUGGAUCGGCTT against Tfdp1 belongs inactive: 0.502; to CGUGUGUCCGAAACAGCUATT against Cog8, inactive: -0.819; to GGCCUGGUCUUAGAAAUAGTT against Dock3, inactive: 0.9.
Turning to CGAAGUGAAGAUUUACAGCTT against Gm67, the z-score was inactive: 0.159.
In the case of “CGAAAUAGGUAUUAAGGGUTT against GA_x5J8B7TQSKC-412-5” it was inactive: -0.0678; in that of GGACAUUUGAUAUUGAAGATT against B3gnt1, inactive: 0.555.
Take GGAAAUGUGUGUUUCUUGCTT against Slco1a6: the z-score is inactive: 0.356.
In the case of “GCCGUGUCCUUGCAUAACUTT against 4933400F01Rik” it was inactive: 0.844; in that of AAGACUUGAUCUGAGCAGATT against BC065151, inactive: -0.524; in that of GGUGCUAUGGCUGUGCAUATT against Doxl2, inactive: 0.748.
In the case of GACUGAACAUAGCCUUCACTT against Olfr677 it was inactive: -0.791.
Regarding “GGUAAAGAGUAUGACAAUCTT against 5730538E15Rik”, the z-score was inactive: 0.583.
To GGAGUGUGACUCUCAGAAATT against Adar belongs inactive: 1.66; to GCCAGUAAACGGAGCUACCTT against Nmt1, inactive: 0.129.
Take “GGCACUUAUUUCUGUGUUCTT against B230359F08Rik”: the z-score is inactive: -0.189.

(Values after PubChem BioAssay AID1347423 (Functional Genomics Laboratory (NCATS/FGL), 2020).)
